Values of other authors as cited in patent publication US20240293405A1, “(1H-PYRROLO[2,3-B]PYRIDIN-1-YL)PYRIMIDIN-2-YL-AMINO-PHENYL-ACRYLAMIDE INHIBITORS OF EGFR FOR USE IN THE TREATMENT OF BRAIN TUMORS” (Dana-Farber Cancer Institute, Inc., priority 2021, published 2024).
Where two headings read alike, the source gives them in different places. At least one compound was matched to its structure with a doubt left.

System: Glioblastoma
Conditions: previously published report, cited from earlier work

Structure (SMILES): CN(C)C/C=C/C(=O)Nc1cc2c(Nc3ccc(F)c(Cl)c3)ncnc2cc1O[C@H]1CCOC1 [Afatinib]
- Glioblastoma (treatment outcome): Failed
- Glioblastoma (treatment outcome) (listed as afatinib): failed
